# Assay results as given in PMC13546301.
# Chains of the proteins cited; added tags and fusions are not shown. Residues count along the entry.
# UniProt B0V2N1, residues 30-1907: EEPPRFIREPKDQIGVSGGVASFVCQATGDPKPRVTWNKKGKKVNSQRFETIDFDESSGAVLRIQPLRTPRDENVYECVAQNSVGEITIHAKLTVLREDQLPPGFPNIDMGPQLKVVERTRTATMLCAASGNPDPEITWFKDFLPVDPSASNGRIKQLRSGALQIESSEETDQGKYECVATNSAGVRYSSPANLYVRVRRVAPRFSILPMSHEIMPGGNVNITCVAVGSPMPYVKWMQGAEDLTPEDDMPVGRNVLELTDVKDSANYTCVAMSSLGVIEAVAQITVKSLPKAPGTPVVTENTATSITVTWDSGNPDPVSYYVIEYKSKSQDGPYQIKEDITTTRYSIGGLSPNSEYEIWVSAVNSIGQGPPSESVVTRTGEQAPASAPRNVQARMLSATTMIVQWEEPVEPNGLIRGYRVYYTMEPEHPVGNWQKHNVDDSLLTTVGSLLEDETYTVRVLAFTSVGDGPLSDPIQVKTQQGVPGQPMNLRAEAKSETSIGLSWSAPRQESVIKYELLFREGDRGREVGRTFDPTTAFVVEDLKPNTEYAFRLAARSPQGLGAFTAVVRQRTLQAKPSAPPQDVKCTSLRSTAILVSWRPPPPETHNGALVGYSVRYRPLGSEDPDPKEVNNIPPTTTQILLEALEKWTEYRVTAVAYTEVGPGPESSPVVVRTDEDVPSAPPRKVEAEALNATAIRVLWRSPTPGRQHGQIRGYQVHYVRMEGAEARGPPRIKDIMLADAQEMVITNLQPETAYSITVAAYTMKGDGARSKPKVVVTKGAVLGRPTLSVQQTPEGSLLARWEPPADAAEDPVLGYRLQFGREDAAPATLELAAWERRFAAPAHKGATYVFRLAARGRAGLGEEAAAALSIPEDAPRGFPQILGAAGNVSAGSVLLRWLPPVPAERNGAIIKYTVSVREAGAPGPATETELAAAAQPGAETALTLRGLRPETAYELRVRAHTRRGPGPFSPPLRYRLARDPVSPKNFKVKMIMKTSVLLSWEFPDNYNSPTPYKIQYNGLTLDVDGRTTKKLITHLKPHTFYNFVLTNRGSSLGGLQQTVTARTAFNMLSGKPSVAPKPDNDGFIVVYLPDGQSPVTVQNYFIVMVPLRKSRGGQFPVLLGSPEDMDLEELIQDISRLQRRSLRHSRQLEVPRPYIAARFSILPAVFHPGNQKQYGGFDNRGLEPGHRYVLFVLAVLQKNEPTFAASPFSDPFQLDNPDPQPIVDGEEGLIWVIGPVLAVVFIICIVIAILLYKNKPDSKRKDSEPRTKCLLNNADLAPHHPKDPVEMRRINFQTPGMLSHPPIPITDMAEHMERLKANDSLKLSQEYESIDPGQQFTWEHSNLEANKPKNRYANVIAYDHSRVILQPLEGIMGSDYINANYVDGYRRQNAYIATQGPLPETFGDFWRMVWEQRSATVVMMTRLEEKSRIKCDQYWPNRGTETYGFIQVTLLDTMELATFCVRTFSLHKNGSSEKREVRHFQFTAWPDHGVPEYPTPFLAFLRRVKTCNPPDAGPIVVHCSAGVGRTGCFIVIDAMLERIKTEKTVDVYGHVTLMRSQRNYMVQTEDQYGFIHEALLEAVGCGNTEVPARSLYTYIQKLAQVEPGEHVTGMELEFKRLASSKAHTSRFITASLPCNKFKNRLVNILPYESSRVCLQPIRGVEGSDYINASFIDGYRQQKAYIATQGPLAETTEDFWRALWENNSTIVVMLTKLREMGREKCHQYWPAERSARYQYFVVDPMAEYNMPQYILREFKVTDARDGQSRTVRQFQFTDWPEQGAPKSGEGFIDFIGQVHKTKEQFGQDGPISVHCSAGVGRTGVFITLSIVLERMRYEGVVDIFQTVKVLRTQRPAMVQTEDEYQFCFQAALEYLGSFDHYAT
# UniProt Q6P9K9, residues 28-1571: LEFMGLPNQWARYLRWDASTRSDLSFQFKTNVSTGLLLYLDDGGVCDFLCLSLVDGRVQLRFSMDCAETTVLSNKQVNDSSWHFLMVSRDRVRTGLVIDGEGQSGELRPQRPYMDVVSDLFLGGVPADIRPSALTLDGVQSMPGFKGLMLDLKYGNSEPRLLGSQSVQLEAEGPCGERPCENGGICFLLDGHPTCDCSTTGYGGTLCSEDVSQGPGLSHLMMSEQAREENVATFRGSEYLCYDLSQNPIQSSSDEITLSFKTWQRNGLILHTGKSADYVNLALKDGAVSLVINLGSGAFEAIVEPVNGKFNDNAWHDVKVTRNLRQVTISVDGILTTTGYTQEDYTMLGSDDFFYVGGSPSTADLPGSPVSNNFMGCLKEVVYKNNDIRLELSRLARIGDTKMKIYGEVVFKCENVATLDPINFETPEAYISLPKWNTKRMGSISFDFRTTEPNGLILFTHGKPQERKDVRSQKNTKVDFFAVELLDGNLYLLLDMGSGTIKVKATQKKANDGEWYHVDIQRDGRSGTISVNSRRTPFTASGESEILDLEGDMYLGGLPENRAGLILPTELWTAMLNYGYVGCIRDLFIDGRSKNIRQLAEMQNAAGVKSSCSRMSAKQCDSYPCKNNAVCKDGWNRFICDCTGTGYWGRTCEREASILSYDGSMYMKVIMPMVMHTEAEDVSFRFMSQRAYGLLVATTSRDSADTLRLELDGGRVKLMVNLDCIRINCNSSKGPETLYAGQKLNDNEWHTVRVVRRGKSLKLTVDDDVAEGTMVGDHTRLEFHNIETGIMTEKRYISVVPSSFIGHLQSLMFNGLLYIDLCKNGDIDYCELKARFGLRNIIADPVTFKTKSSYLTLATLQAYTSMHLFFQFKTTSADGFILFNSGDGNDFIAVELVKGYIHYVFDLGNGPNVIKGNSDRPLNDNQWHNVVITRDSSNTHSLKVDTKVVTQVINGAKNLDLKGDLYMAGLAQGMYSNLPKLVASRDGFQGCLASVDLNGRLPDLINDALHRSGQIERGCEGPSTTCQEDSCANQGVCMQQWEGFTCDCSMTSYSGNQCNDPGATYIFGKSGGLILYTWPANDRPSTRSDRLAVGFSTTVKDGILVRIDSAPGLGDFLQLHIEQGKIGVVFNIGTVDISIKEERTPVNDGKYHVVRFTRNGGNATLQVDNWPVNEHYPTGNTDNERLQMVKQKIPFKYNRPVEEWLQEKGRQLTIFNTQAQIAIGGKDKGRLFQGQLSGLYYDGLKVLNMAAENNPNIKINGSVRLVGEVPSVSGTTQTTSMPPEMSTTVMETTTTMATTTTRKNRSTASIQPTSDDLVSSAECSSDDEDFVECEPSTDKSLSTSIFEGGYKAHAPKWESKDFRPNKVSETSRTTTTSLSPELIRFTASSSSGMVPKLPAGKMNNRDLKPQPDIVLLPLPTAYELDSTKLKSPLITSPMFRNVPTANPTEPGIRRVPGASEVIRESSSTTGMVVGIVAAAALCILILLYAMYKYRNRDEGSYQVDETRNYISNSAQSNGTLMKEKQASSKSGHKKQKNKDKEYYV
# UniProt Q9CS84, residues 31-1514: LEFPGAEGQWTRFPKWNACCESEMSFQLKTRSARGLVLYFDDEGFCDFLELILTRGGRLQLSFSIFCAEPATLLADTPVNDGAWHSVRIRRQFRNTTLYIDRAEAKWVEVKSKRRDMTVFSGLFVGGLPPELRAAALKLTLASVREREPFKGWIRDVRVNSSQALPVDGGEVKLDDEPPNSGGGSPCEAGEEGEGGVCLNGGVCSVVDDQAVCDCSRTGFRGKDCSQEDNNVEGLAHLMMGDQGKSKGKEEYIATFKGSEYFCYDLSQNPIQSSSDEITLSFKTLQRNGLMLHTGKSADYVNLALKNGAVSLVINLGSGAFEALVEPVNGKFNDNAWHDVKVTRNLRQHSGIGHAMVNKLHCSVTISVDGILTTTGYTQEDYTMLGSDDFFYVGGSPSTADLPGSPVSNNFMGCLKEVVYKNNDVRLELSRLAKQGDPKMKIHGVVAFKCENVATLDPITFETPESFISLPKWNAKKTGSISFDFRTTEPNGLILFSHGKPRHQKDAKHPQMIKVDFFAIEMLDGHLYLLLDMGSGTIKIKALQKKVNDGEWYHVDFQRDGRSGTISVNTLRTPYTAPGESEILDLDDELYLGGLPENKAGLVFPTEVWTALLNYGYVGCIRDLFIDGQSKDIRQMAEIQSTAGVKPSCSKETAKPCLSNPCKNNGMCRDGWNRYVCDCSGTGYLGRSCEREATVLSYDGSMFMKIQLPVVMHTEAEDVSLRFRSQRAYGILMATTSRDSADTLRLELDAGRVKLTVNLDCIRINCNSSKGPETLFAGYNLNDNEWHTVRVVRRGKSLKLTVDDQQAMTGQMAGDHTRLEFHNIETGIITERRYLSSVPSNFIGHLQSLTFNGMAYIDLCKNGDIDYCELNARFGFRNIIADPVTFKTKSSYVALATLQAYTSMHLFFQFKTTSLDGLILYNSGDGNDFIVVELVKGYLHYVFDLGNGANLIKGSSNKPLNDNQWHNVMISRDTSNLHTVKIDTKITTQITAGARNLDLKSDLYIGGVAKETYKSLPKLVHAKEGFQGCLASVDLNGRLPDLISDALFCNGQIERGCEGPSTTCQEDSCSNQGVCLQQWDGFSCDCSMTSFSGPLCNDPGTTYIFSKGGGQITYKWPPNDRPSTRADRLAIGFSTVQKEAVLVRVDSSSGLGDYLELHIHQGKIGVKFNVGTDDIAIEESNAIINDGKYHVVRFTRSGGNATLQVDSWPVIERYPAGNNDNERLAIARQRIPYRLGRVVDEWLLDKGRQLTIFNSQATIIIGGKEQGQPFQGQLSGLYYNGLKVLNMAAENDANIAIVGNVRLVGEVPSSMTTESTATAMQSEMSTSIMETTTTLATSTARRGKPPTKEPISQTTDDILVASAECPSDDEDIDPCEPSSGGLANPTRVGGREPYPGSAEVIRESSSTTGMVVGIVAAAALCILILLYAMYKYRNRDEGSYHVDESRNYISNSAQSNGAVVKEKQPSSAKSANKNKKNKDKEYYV
# Results are given in words; binding and its absence hold for the method and conditions named. Binding seen in cells or lysates may run through a third protein. Some results given as binding are weak or reduced against the parent protein; the word gives no strength.
# Key:
# V5-tagged PTPRS [1] = molecular target: V5-tagged PTPRS (UniProt B0V2N1); assay: co-IP; tsA201 cells co-expressing PTPRS-V5, T178B-Myc-FLAG and an HA-tagged neurexin (all three constituents); CL-91-solubilised membranes; anti-V5, anti-HA or anti-FLAG APs, Western blot
# V5-tagged PTPRS [2] = molecular target: V5-tagged PTPRS (UniProt B0V2N1); assay: co-IP; tsA201 cells, pairwise expression (two of PTPRS-V5, T178B-Myc-FLAG, HA-tagged neurexin; neurexin with PTPRS without T178B); CL-91-solubilised membranes; anti-V5, anti-HA or anti-FLAG APs, Western blot
binding (V5-tagged PTPRS [1]),binding (V5-tagged PTPRS [2]),Substance
binds,binds weakly,NRX3A-HA (from UniProt Q6P9K9 28-1571)
binds,binds weakly,HA-tagged NRX1A (from UniProt Q9CS84 31-1514)
